# Measurements published in PMC8808184.
# The chains behind the UniProt entries cited, without tags or fusion partners. Residues count along the entry.
# UniProt Q06481, residues 46-205: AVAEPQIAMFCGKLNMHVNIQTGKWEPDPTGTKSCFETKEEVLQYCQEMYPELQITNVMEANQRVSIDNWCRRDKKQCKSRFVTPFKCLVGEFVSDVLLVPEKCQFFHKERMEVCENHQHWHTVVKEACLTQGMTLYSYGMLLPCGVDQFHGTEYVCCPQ
# UniProt P12023, residues 28-189: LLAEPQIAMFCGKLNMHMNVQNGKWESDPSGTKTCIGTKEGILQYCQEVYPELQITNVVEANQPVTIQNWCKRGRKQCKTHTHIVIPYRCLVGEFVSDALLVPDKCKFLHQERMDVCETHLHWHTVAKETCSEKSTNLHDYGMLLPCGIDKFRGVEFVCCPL
# These are yes or no findings as the source states them, for the method shown.
# What was measured:
# [1] = target: E1 domain of APLP2 (species not named; size-exclusion chromatography) (not stated (human, chicken and zebrafish APLP2 used)) (UniProt Q06481); assay: SEC; size-exclusion chromatography of the purified fragments; both purified
# [2] = target: E1 domain of APP (species not named; size-exclusion chromatography) (not stated (chicken, human and mouse APP and zebrafish APPb made)) (UniProt P12023); assay: as above
binding [1],binding [2],Substance
no binding,,E1 domain of APLP2 (species not named; size-exclusion chromatography) (from UniProt Q06481 46-205) (domain or fragment)
,no binding,E1 domain of APP (species not named; size-exclusion chromatography) (from UniProt P12023 28-189) (domain or fragment)
